# According to the supplement of paper PMC5407854, “Inhibitor of ppGalNAc-T3-mediated O-glycosylation blocks cancer cell invasiveness and lowers FGF23 levels” (eLife, 2017):
# The list shows a part of the results. Small differences around the control level are noise.
# System: ppGalNAc-T2 sensor
# Assay: T2 sensor activation Q score (MG/GFP ratio z-score vs DMSO controls) (SD units); higher = more sensor activation (inhibition of ppGalNAc-T2 glycosylation)
# Conditions: HEK293 sensor cells; 10 µM; 6 h
# Procedure: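 Cells were treated with compound at 10 uM for 6 h, then MG/GFP ratio was read by flow cytometry (10,000 cells per well, duplicate wells). Q = (R - R_neg)/SD_neg relative to DMSO vehicle controls; the signal rises when the glycosyltransferase is inhibited.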
row,SMILES,T2 sensor activation Q score
1,Cc1cc(Br)c2[nH]cc(CCN)c2c1,-0.12
2,OCCN1CCN(Cc2ccccc2F)CC1,-0.795
3,COc1ccccc1N1CCN(Cc2ccccc2F)CC1,-0.255
4,CN1CCN(Cc2cc(F)ccc2F)CC1,-0.25
5,CCN1CCN(Cc2ccc(OC)c(C)c2)CC1,-0.415
6,COc1cc(CN2CCN(c3ccccc3)CC2)cc(OC)c1O,-0.065
7,NCCc1c[nH]c2ccc(F)cc12,-0.455
8,CN1CCN(Cc2ccc(F)cc2)CC1,1.35
9,O=[N+]([O-])c1ccc(O)c(CN2CCN(c3ccccc3)CC2)c1,-0.905
10,COc1cc(C)c(CN2CCN(c3ccccc3)CC2)cc1C,-0.38
11,COc1ccc(CN2CCN(c3ccccc3)CC2)c(C)c1C,-0.825
12,CN1CCN(Cc2c(Cl)cccc2Cl)CC1,-0.655
13,CCN1CCN(Cc2ccc(C)cc2)CC1,-0.55
14,COc1cc(OC)c(CN2CCN(c3ccccc3)CC2)cc1Br,-0.495
15,CCOc1ccccc1N1CCN(Cc2ccccc2Cl)CC1,0.175
16,COc1ccc(CN2CCN(c3ccccc3Cl)CC2)c(OC)c1,0.535
17,COc1ccc(CCNC2CCCC(C)C2)cc1 (stereo not given),-0.22
18,COc1cccc(CN2CCN(c3ccc(F)cc3)CC2)c1,-0.055
19,COc1ccccc1N1CCN(Cc2ccc(Br)cc2)CC1,0.29
20,CCOc1ccccc1N1CCN(Cc2ccccc2C)CC1,0.195

row,SMILES,T2 sensor activation Q score
1,CCN1CCN(Cc2ccc(Cl)cc2)CC1,0.145
2,COc1cccc(CN2CCN(c3ccccc3Cl)CC2)c1,-0.46
3,CCN1CCN(Cc2ccc(OC)c(OC)c2)CC1,0.34
4,CCOc1ccccc1CN1CCN(c2ccccc2Cl)CC1,-1.11
5,Fc1ccc(N2CCN(Cc3cccc(Br)c3)CC2)cc1,0.24
6,COc1ccc(CNCCc2ccccc2)cc1C,0.72
7,COc1ccc(CN2CCN(c3ccccc3)CC2)c(OC)c1C,-0.715
8,CCN1CCN(Cc2cc(Br)ccc2OC)CC1,0.185
9,COc1ccc(CN2CCN(c3ccc(F)cc3)CC2)cc1OC,-0.73
10,COc1ccc(N2C(=O)CC(=O)NC2=O)cc1,0.515
11,Fc1ccc(CN2CCN(c3ccccc3)CC2)cc1,-0.89
12,Cc1ccccc1N1CCN(Cc2ccc([N+](=O)[O-])cc2)CC1,-0.39
13,CN1CCN(Cc2cc3c(cc2[N+](=O)[O-])OCO3)CC1,0.695
14,O=[N+]([O-])c1ccc(NCCO)c2ncccc12,-0.76
15,O=c1cccc2n1C[C@H]1C[C@H]2CN(Cc2cccc(F)c2)C1,-0.31
16,O=[N+]([O-])c1ccc(N2CCN(Cc3ccc(Cl)cc3Cl)CC2)cc1,0.395
17,CCOc1ccccc1N1CCN(Cc2cccc(C)c2)CC1,0.655
18,Fc1cccc(CN2CCN(c3ccccc3Cl)CC2)c1,0.12
19,O=C1CC(=O)N(c2ccc(Br)cc2)C(=O)N1,-0.435
20,COc1ccc(OC)c(CN2CCN(c3ccc(F)cc3)CC2)c1,-0.51
